Experimental data: PubChem BioAssay AID186 (DTP/NCI, 2004)
Values are animals surviving of animals treated; these mice carried no tumour. Counts of survivors are from the toxicity check (mostly the fifth day) where no day follows; animals may have died later. Schedules are NCI's codes, taken here to give the interval after Q, in days (D) or hours (H), and the number of doses after X. Counts like (3×) give the number of equal values in this list. Some entries were tested several times; the results are listed from low to high.

Test system: B6D2F1 mice, nontumored toxicity test, survival
Experiment: NCI In Vivo Anticancer Drug Screen. Data for tumor model Nontumored Animals (Toxicity Test) in B6D2F1 (BDF1) mice

COc1cc([C@@H]2c3cc4c(cc3[C@@H](OC3OC5COC(C)OC5C(O)C3O)[C@H]3COC(=O)[C@H]23)OCO4)cc(OC)c1O (stereo partly drawn)
survivor count (dose: 1.73 mg/kg/injection, schedule: Q01DX009 (ip), vehicle: clinical formulation): 5 of 5 | survivor count (dose: 2.88 mg/kg/injection, schedule: Q01DX009 (ip), vehicle: clinical formulation): 5 of 5 | survivor count (dose: 4.0 mg/kg/injection, schedule: Q01DX009 (oral), vehicle: Klucel (hydroxypropylcellulose) (HPC)): 8 of 8 | survivor count (dose: 4.0 mg/kg/injection, schedule: Q03HX016 (oral), vehicle: Klucel (hydroxypropylcellulose) (HPC)): 8 of 8 | survivor count (dose: 4.8 mg/kg/injection, schedule: Q01DX009 (ip), vehicle: clinical formulation): 5 of 5 | survivor count (dose: 8.0 mg/kg/injection, schedule: Q01DX009 (ip), vehicle: clinical formulation): 5 of 5 | survivor count (dose: 8.0 mg/kg/injection, schedule: Q01DX009 (oral), vehicle: Klucel (hydroxypropylcellulose) (HPC)): 8 of 8 | survivor count (dose: 8.0 mg/kg/injection, schedule: Q03HX016 (oral), vehicle: Klucel (hydroxypropylcellulose) (HPC)): 8 of 8 | survivor count (dose: 8.0 mg/kg/injection, schedule: Q04DX003 (ip), vehicle: saline): 4 of 4 | survivor count (dose: 8.0 mg/kg/injection, schedule: Q04DX003 (ip), vehicle: suspension in saline): 4 of 4 | survivor count (dose: 13.3 mg/kg/injection, schedule: Q01DX009 (ip), vehicle: clinical formulation): 5 of 5 | survivor count (dose: 16.0 mg/kg/injection, schedule: Q01DX009 (oral), vehicle: Klucel (hydroxypropylcellulose) (HPC)): 8 of 8 | survivor count (dose: 16.0 mg/kg/injection, schedule: Q03HX016 (oral), vehicle: Klucel (hydroxypropylcellulose) (HPC)): 7 of 8 | survivor count (dose: 16.0 mg/kg/injection, schedule: Q04DX003 (ip), vehicle: saline): 4 of 4 | survivor count (dose: 16.0 mg/kg/injection, schedule: Q04DX003 (ip), vehicle: suspension in saline): 4 of 4 | survivor count (dose: 32.0 mg/kg/injection, schedule: Q01DX009 (oral), vehicle: Klucel (hydroxypropylcellulose) (HPC)): 8 of 8 | survivor count (dose: 32.0 mg/kg/injection, schedule: Q03HX016 (oral), vehicle: Klucel (hydroxypropylcellulose) (HPC)): 8 of 8 | survivor count (dose: 32.0 mg/kg/injection, schedule: Q04DX003 (ip), vehicle: saline): 2 of 3 | survivor count (dose: 32.0 mg/kg/injection, schedule: Q04DX003 (ip), vehicle: suspension in saline): 4 of 4 | survivor count (dose: 32.0 mg/kg/injection, schedule: Q04DX003 (oral), vehicle: Klucel (hydroxypropylcellulose) (HPC)): 8 of 8 | survivor count (dose: 64.0 mg/kg/injection, schedule: Q01DX009 (oral), vehicle: Klucel (hydroxypropylcellulose) (HPC)): 8 of 8 | survivor count (dose: 64.0 mg/kg/injection, schedule: Q03HX016 (oral), vehicle: Klucel (hydroxypropylcellulose) (HPC)): 8 of 8 | survivor count (dose: 64.0 mg/kg/injection, schedule: Q04DX003 (ip), vehicle: saline): 4 of 4 | survivor count (dose: 64.0 mg/kg/injection, schedule: Q04DX003 (ip), vehicle: suspension in saline): 2 of 3 | survivor count (dose: 64.0 mg/kg/injection, schedule: Q04DX003 (oral), vehicle: Klucel (hydroxypropylcellulose) (HPC)): 8 of 8 | survivor count (dose: 128.0 mg/kg/injection, schedule: Q01DX009 (oral), vehicle: Klucel (hydroxypropylcellulose) (HPC)): 7 of 8 | survivor count (dose: 128.0 mg/kg/injection, schedule: Q03HX016 (oral), vehicle: Klucel (hydroxypropylcellulose) (HPC)): 8 of 8 | survivor count (dose: 128.0 mg/kg/injection, schedule: Q04DX003 (oral), vehicle: Klucel (hydroxypropylcellulose) (HPC)): 8 of 8 | survivor count (dose: 256.0 mg/kg/injection, schedule: Q04DX003 (oral), vehicle: Klucel (hydroxypropylcellulose) (HPC)): 8 of 8 | survivor count (dose: 512.0 mg/kg/injection, schedule: Q04DX003 (oral), vehicle: Klucel (hydroxypropylcellulose) (HPC)): 8 of 8 | survivor count (dose: 1024.0 mg/kg/injection, schedule: Q04DX003 (oral), vehicle: Klucel (hydroxypropylcellulose) (HPC)): 8 of 8

Cc1c2ccncc2c(C)c2c1[nH]c1ccccc12
survivor count (dose: 1.0 mg/kg/injection, schedule: Q03HX016 (ip), vehicle: water): 7 of 8 | survivor count (dose: 1.0 mg/kg/injection, schedule: Q03HX024 (ip), vehicle: water): 8 of 8 | survivor count (dose: 2.0 mg/kg/injection, schedule: Q03HX008 (ip), vehicle: water): 8 of 8 | survivor count (dose: 2.0 mg/kg/injection, schedule: Q03HX008 (sc), vehicle: water): 8 of 8 | survivor count (dose: 2.0 mg/kg/injection, schedule: Q03HX016 (ip), vehicle: water): 8 of 8 | survivor count (dose: 2.0 mg/kg/injection, schedule: Q03HX024 (ip), vehicle: water): 8 of 8 | survivor count (dose: 4.0 mg/kg/injection, schedule: Q01DX009 (ip), vehicle: water): 8 of 8 | survivor count (dose: 4.0 mg/kg/injection, schedule: Q01DX009 (sc), vehicle: water): 8 of 8 | survivor count (dose: 4.0 mg/kg/injection, schedule: Q03HX008 (ip), vehicle: water): 8 of 8 (2×) | survivor count (dose: 4.0 mg/kg/injection, schedule: Q03HX008 (sc), vehicle: water): 8 of 8 | survivor count (dose: 4.0 mg/kg/injection, schedule: Q03HX016 (ip), vehicle: water): 8 of 8 | survivor count (dose: 4.0 mg/kg/injection, schedule: Q03HX024 (ip), vehicle: water): 8 of 8 | survivor count (dose: 8.0 mg/kg/injection, schedule: Q01DX009 (ip), vehicle: water): 8 of 8 | survivor count (dose: 8.0 mg/kg/injection, schedule: Q01DX009 (sc), vehicle: water): 8 of 8 | survivor count (dose: 8.0 mg/kg/injection, schedule: Q03HX008 (ip), vehicle: water): 7 of 8 and 8 of 8 | survivor count (dose: 8.0 mg/kg/injection, schedule: Q03HX008 (sc), vehicle: water): 8 of 8 | survivor count (dose: 8.0 mg/kg/injection, schedule: Q03HX016 (ip), vehicle: water): 8 of 8 | survivor count (dose: 8.0 mg/kg/injection, schedule: Q03HX024 (ip), vehicle: water): 8 of 8 | survivor count (dose: 8.0 mg/kg/injection, schedule: Q04DX003 (ip), vehicle: other): 8 of 8 | survivor count (dose: 8.0 mg/kg/injection, schedule: Q08DX002 (ip), vehicle: other): 8 of 8 | survivor count (dose: 16.0 mg/kg/injection, schedule: Q01DX001 (ip), vehicle: other): 8 of 8 | survivor count (dose: 16.0 mg/kg/injection, schedule: Q01DX001 (sc), vehicle: other): 8 of 8 | survivor count (dose: 16.0 mg/kg/injection, schedule: Q01DX009 (ip), vehicle: water): 8 of 8 | survivor count (dose: 16.0 mg/kg/injection, schedule: Q01DX009 (sc), vehicle: water): 8 of 8 | survivor count (dose: 16.0 mg/kg/injection, schedule: Q03HX008 (ip), vehicle: water): 4 of 8 and 8 of 8 | survivor count (dose: 16.0 mg/kg/injection, schedule: Q03HX008 (sc), vehicle: water): 8 of 8 | survivor count (dose: 16.0 mg/kg/injection, schedule: Q03HX016 (ip), vehicle: water): 7 of 8 | survivor count (dose: 16.0 mg/kg/injection, schedule: Q03HX024 (ip), vehicle: water): 7 of 8 | survivor count (dose: 16.0 mg/kg/injection, schedule: Q04DX003 (ip), vehicle: other): 8 of 8 | survivor count (dose: 16.0 mg/kg/injection, schedule: Q08DX002 (ip), vehicle: other): 8 of 8 | survivor count (dose: 32.0 mg/kg/injection, schedule: Q01DX001 (ip), vehicle: other): 8 of 8 | survivor count (dose: 32.0 mg/kg/injection, schedule: Q01DX001 (sc), vehicle: other): 8 of 8 | survivor count (dose: 32.0 mg/kg/injection, schedule: Q01DX009 (ip), vehicle: water): 7 of 8 | survivor count (dose: 32.0 mg/kg/injection, schedule: Q01DX009 (sc), vehicle: water): 8 of 8 | survivor count (dose: 32.0 mg/kg/injection, schedule: Q03HX008 (ip), vehicle: water): 0 of 8 (2×) | survivor count (dose: 32.0 mg/kg/injection, schedule: Q03HX008 (sc), vehicle: water): 8 of 8 | survivor count (dose: 32.0 mg/kg/injection, schedule: Q03HX016 (ip), vehicle: water): 3 of 8 | survivor count (dose: 32.0 mg/kg/injection, schedule: Q03HX024 (ip), vehicle: water): 1 of 8 | survivor count (dose: 32.0 mg/kg/injection, schedule: Q04DX003 (ip), vehicle: other): 7 of 8 | survivor count (dose: 32.0 mg/kg/injection, schedule: Q08DX002 (ip), vehicle: other): 8 of 8 | survivor count (dose: 64.0 mg/kg/injection, schedule: Q01DX001 (ip), vehicle: other): 8 of 8 | survivor count (dose: 64.0 mg/kg/injection, schedule: Q01DX001 (sc), vehicle: other): 8 of 8 | survivor count (dose: 64.0 mg/kg/injection, schedule: Q01DX009 (ip), vehicle: water): 7 of 8 | survivor count (dose: 64.0 mg/kg/injection, schedule: Q01DX009 (sc), vehicle: water): 8 of 8 | survivor count (dose: 64.0 mg/kg/injection, schedule: Q03HX008 (ip), vehicle: water): 0 of 8 (2×) | survivor count (dose: 64.0 mg/kg/injection, schedule: Q03HX008 (sc), vehicle: water): 6 of 8 | survivor count (dose: 64.0 mg/kg/injection, schedule: Q04DX003 (ip), vehicle: other): 8 of 8 | survivor count (dose: 64.0 mg/kg/injection, schedule: Q08DX002 (ip), vehicle: other): 8 of 8 | survivor count (dose: 128.0 mg/kg/injection, schedule: Q01DX001 (ip), vehicle: other): 2 of 8 | survivor count (dose: 128.0 mg/kg/injection, schedule: Q01DX001 (sc), vehicle: other): 8 of 8 | survivor count (dose: 128.0 mg/kg/injection, schedule: Q01DX009 (ip), vehicle: water): 0 of 8 | survivor count (dose: 128.0 mg/kg/injection, schedule: Q04DX003 (ip), vehicle: other): 4 of 8 | survivor count (dose: 128.0 mg/kg/injection, schedule: Q08DX002 (ip), vehicle: other): 5 of 8 | survivor count (dose: 256.0 mg/kg/injection, schedule: Q01DX001 (ip), vehicle: other): 0 of 8 | survivor count (dose: 256.0 mg/kg/injection, schedule: Q01DX001 (sc), vehicle: other): 8 of 8 | survivor count (dose: 256.0 mg/kg/injection, schedule: Q04DX003 (ip), vehicle: other): 0 of 8 | survivor count (dose: 256.0 mg/kg/injection, schedule: Q08DX002 (ip), vehicle: other): 1 of 8

C[S+](C)CCCNC(=O)c1csc(-c2csc(CCNC(=O)c3ccccc3)n2)n1
survivor count (dose: 6.25 mg/kg/injection, schedule: Q01DX011 (ip), vehicle: saline): 6 of 6 | survivor count (dose: 12.5 mg/kg/injection, schedule: Q01DX011 (ip), vehicle: saline): 6 of 6 | survivor count (dose: 25.0 mg/kg/injection, schedule: Q01DX011 (ip), vehicle: saline): 6 of 6 | survivor count (dose: 50.0 mg/kg/injection, schedule: Q01DX011 (ip), vehicle: saline): 6 of 6 | survivor count (dose: 100.0 mg/kg/injection, schedule: Q01DX011 (ip), vehicle: saline): 1 of 6
